Laboratory results taken from PubChem BioAssay AID504834 (National Center for Advancing Translational Sciences (NCATS), 2011).
The campaign covered roughly 320,000 compounds. About 22,000 (6.9%) were called active. This list was built around the results that the source calls inconclusive (neither active nor inactive); the mix of calls is not that of the screen. The call rests on the fitted dose curve; in most records, active means well fitted inhibition curve with a large enough effect; inconclusive means small, poorly fitted or top-dose-only effect, or another doubt; inactive means no such curve, though single readings can be large or run the other way. A potency beside an inconclusive call is a rough fit, not a confirmed value.

test: Primary qHTS for delayed death inhibitors of the malarial parasite plastid, 96 hour incubation; conditions: P. falciparum luciferase reporter growth; series mostly up to 28.7 µM; activity change, negative = inhibition: at the top concentration
How it was run: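 P. falciparum expressing integrated firefly luciferase grown in erythrocytes (2% hematocrit, 0.05% parasitemia final) with compounds for 96 hours at 37 C, 5% CO2. Growth inhibition read as loss of luminescence after adding luciferase detection reagent.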
On the % scale 0 is the no-effect control and ±100 the full control effect; potency means the concentration at half of the fitted maximal effect.

Row | SMILES | activity change, negative = inhibition | Potency
1 | C=Cc1ccc(N=Cc2c(O)ccc3ccccc23)cc1 | inactive: 23.1% | 
2 | N#C/C(=N\Nc1cccc(C(F)(F)F)c1)C(=O)c1csc(-c2cccnc2)n1 |  | inconclusive: 10.4 µM [inhibitor, partial curve]
3 | O=C(Nc1nc(NC(=O)c2ccco2)n(-c2ccccc2)n1)c1ccccc1 | inactive: -15.5% [at 5.75 µM] | 
4 | CCCC1(CCC)C(=O)NC(=NCc2ccccc2)NC1=O | inactive: 32.9% | 
5 | O=C(Cn1ncc(Cl)c(Cl)c1=O)N1CCOCC1 |  | inconclusive: 4.15 µM [inhibitor, single point]
6 | C/C=C/C=C/C(=O)N1CC[C@]23c4ccccc4N[C@H]4N(C)c5cccc6c5[C@]42CCN([C@H]6C2OC2(C)C)[C@H]13 (stereo not given in full) | inactive: 38.4% | 
7 | Cc1occc1C(=O)N1CCCC(N2CCN(c3ccccc3F)CC2)C1 (stereo not given) | inactive: 10.2% | 
8 | CC(C)(C)c1ccc(OCC(=O)N2CCCCCC2)c(Br)c1 |  | inconclusive: 5.22 µM [inhibitor, partial curve, poor fit]
9 | CCOc1cc2[nH]c(=S)n(Cc3ccc(C(=O)NCCCN4CCOCC4)cc3)c(=O)c2cc1OCC |  | inconclusive: 1.47 µM [inhibitor, full curve, poor fit]
10 | O=C(CN1CCN(C(=O)CCC(=O)N2CCC(c3ccccc3)=N2)CC1)Nc1ccc(F)cc1 | inactive: -24.2% | 
11 | COc1ccc(/C=C2\SC(=S)N(CCCC(=O)Nc3ccccn3)C2=O)cc1OC |  | inconclusive: 4.15 µM [inhibitor, single point]
12 | Cc1cc(/C=C2\C(=O)NC(=O)N(c3cccc(F)c3)C2=O)c(C)n1-c1ccc(C(=O)O)c(Cl)c1 |  | inconclusive: 18.5 µM [inhibitor, single point]
13 | CCc1ccc(NC(=S)NC(=O)c2c(-c3ccccc3Cl)noc2C)cc1 |  | active: 7.38 µM
14 | O=C(Cc1ccsc1)N1CCc2c([nH]c3ccccc23)C1c1ccccn1 (stereo not given) | inactive: 14.2% | 
15 | O=C(NCCCSc1ccccc1)c1cc(Cl)ccc1O |  | active: 11.7 µM
16 | COc1ccc(Cl)cc1NC(=S)NCCc1c[nH]c2ccccc12 |  | inconclusive: 13.1 µM [inhibitor, single point]
17 | O=C(Nc1ccc(O)cc1)c1ccccc1OCc1ccccc1 |  | inconclusive: 11.7 µM [inhibitor, partial curve, poor fit]
18 | CCOc1ccc(N2CC(C(=O)Nc3ccc(OC)c(S(=O)(=O)N4CCCCC4)c3)CC2=O)cc1 (stereo not given) |  | inconclusive: 7.38 µM [inhibitor, partial curve, poor fit]
19 | COc1ccc(Cl)cc1NC(=O)c1oc(C)nc1C |  | inconclusive: 10.4 µM [inhibitor, single point]
20 | CN(C)/N=C/c1ccc(OS(=O)(=O)c2ccccc2)cc1 | inactive: 4.8% | 
21 | O=C(O)C1CC(=O)N(CCc2c[nH]c3ccccc23)C1 (stereo not given) | inactive: 0% | 
22 | O=C(Nc1cccc(-n2cnnn2)c1)c1cccnc1 | inactive: 33.7% | 
23 | COc1cccc(/C=N/n2cnnc2)c1OCc1ccccc1 |  | inconclusive: 18.5 µM [inhibitor, single point]

Individual results from above:
O=C(Nc1cccc(-n2cnnn2)c1)c1cccnc1 – activity change, negative = inhibition: inactive: 33.7%
COc1ccc(Cl)cc1NC(=S)NCCc1c[nH]c2ccccc12 – Potency: inconclusive: 13.1 µM [inhibitor, single point]

(cont.)

Row | SMILES | activity change, negative = inhibition | Potency
24 | CCCn1nc2cc(C(=O)N(CC)c3ccc(OC)cc3)ccc2c1OCC |  | inconclusive: 0.928 µM [inhibitor, partial curve, poor fit]
25 | O=C(CCc1ccccc1)N=C1SC2CS(=O)(=O)CC2N1Cc1ccc(F)cc1 (stereo not given) | inactive: 42.5% | 
26 | Oc1ccc(-c2nnc(-c3ccccc3)c(-c3ccccc3)n2)cc1 |  | inconclusive: 16.5 µM [inhibitor, single point]
27 | NC(=O)CNC(=O)C1CCCc2c1[nH]c1ccc(Cl)cc21 (stereo not given) |  | inconclusive: 18.5 µM [inhibitor, single point]
28 | CCSc1nnc(NC(=O)c2ccc3ccccc3n2)s1 | inactive: -91.7% | 
29 | CCSc1nnc(NC(=O)CSc2nnc(Cc3cccn3C)n2CCc2ccccc2)s1 |  | inconclusive: 18.5 µM [inhibitor, single point]
30 | CCN1CCN(Cc2ccc(NC(=O)c3cc(NC(=O)c4cncc(-c5ccc(C#N)cc5)c4)cc(OC)c3)cc2C(F)(F)F)CC1 |  | active: 0.104 µM
31 | CCc1cccc(NC(=O)CCCn2nc(C)c3c(C)n(-c4ccccc4)nc3c2=O)c1 |  | inconclusive: 1.04 µM [inhibitor, full curve]
32 | CCOc1ccc(-n2c(SCC(=O)N3CCC(C(=O)O)CC3)nc3ccccc3c2=O)cc1 | inactive: -28.3% | 
33 | CCCCN(C)C(=O)c1nc2ccccn2c1CN(C)Cc1csc(C)n1 |  | inconclusive: 10.4 µM [inhibitor, single point]
34 | O=C(NCc1ccccc1)N1CCn2c(nc3ccccc32)C1 |  | inconclusive: 1.31 µM [inhibitor, full curve, poor fit]
35 | CCC(C(=O)NCCC1=CCCCC1)c1ccccc1 (stereo not given) |  | inconclusive: 13.1 µM [inhibitor, single point]
36 | COC(=O)CC1=C(C(=O)OC)[C@@H](c2ccccc2[N+](=O)[O-])C(C#N)=C(N)O1 |  | inconclusive: 11.7 µM [inhibitor, single point]
37 | Clc1ccc(-c2nnc(COc3ncnc4ccccc34)o2)cc1 | inactive: 43.5% | 
38 | O=C(COC(=O)c1cc([N+](=O)[O-])ccc1N1CCOCC1)Nc1cccc(F)c1 | inactive: -17.7% | 
39 | CC1=CC(C)[C@@H]2COC(c3ccc(O)cc3)[C@H]1C2C (stereo not given in full) |  | active: 9.28 µM
40 | CCN(CC(=O)NCc1ccc(F)cc1)CC(=O)Nc1ccccc1-c1ccccc1 |  | inconclusive: 11.7 µM [inhibitor, single point]
41 | COc1ccc(OC)c(NC(=O)c2cc(S(=O)(=O)N(C)C)ccc2N2CCCC2)c1 |  | inconclusive: 0.262 µM [inhibitor, full curve]
42 | CN1CCCN(C(=O)c2ccccc2Cl)CC1 |  | inconclusive: 18.5 µM [inhibitor, single point]
43 | Cc1cccc(C)c1NC(=S)N1CCC(N(C)CC2CCCO2)CC1 (stereo not given) |  | inconclusive: 0.0828 µM [inhibitor, full curve, poor fit]
44 | O=C(NC1CCSC1=O)C1CC(=O)N(c2ccc(F)cc2)C1 (stereo not given) | inactive: 23.7% | 
45 | CC(C)(C)C(=O)N1CCN(c2nc3ccccc3o2)CC1 |  | inconclusive: 0.329 µM [inhibitor, full curve, poor fit]
